# Measured values reported in article PMC7819943, “Rice protein-binding microarrays: a tool to detect cis-acting elements near promoter regions in rice”.
# The other results are listed elsewhere or left out.
# Target: T1, OsSMF1 (Oryza sativa, UniProt Q6ZLB0 1-436)
# T1 sequence: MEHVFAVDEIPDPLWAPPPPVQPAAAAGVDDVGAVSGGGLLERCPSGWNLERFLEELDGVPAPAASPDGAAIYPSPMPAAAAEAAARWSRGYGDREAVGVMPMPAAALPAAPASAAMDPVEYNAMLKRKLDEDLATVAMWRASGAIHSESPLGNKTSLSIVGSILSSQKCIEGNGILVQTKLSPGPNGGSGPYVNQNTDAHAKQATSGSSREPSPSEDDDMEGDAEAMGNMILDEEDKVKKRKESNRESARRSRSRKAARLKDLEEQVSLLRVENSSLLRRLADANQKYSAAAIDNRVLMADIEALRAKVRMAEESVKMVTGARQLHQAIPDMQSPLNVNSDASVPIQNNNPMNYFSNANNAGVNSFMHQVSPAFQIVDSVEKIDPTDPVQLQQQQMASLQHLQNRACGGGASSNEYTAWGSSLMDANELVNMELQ
# Assay: protein-binding microarray (RPBM); PBS, 2% BSA, 51.3 ng/ul salmon testes DNA, 50 uM zinc acetate, 200 nM TF, 25 C, 1 h; high values mean tight binding
# Conditions: protein: recombinant; tags: N-terminal polyhistidine and DsRed monomer fusion (pET32a); chain copies: 2; label: CyDye5-dUTP incorporated in the synthesized complementary strand; 3' TTTTT single-stranded linker to array surface; dsDNA, one strand shown
# Procedure, shortened: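 The binding signal is fluorescence intensity per feature, in arbitrary units, read on an Axon 4000B scanner. Polyhistidine- and DsRed-tagged transcription factors (N-terminal fusions) from E. coli BL21-CodonPlus were purified on Ni–NTA and applied at 200 nM for 1 h at 25 °C to a double-stranded, BSA-blocked custom Agilent array in buffer with 50 µM zinc acetate.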
row,Sequence,binding signal
1,AGTTGTTTTGTTGATAGGTATAGGTATGAATCGAATTATTCGGAGTCACCTAGTGCAG,34400 fluorescence intensity (a.u.)
2,TTGGTTTGCAGTGGATGAGGAGGAAATTTTGAGCGACTTGCGGAGTCACCTAGTGCAG,3770 fluorescence intensity (a.u.)
3,GCATCTAGAATAAATTATTATGTTTTACTAAATACAAATACGGAGTCACCTAGTGCAG,30600 fluorescence intensity (a.u.)
4,TTCTTGCCTTTATCTTGCAGCCATTGCACACACCTCACTTCGGAGTCACCTAGTGCAG,4410 fluorescence intensity (a.u.)
5,TGGGCCAAACCACCGCCACGTTGCCATCGCTGATTCGCCGCGGAGTCACCTAGTGCAG,10700 fluorescence intensity (a.u.)
6,TCGGCCCCTATTGCGTCACTGGGCGTCGCCTCCCCTTTCTCGGAGTCACCTAGTGCAG,7960 fluorescence intensity (a.u.)
7,TGTCCGCGAGGTGCGCCGACCCGCTGCTCCGCAGGTTGGACGGAGTCACCTAGTGCAG,8490 fluorescence intensity (a.u.)
8,GCCACGGGCGAGCCGACGAGCAGCGTGCGTCACCACCGTACGGAGTCACCTAGTGCAG,6640 fluorescence intensity (a.u.)
9,ACCCCACACCTTTTCTCCTACCCACCACCCGTCTCCGCAACGGAGTCACCTAGTGCAG,3140 fluorescence intensity (a.u.)
10,TCACAAAGTTGTCCTTTCCACACGTCCTCCTATATGCACTCGGAGTCACCTAGTGCAG,4600 fluorescence intensity (a.u.)
11,TCCTGCAGCGGGGCGCGTGGCTCGTCTAGAAATCGGATGACGGAGTCACCTAGTGCAG,5950 fluorescence intensity (a.u.)
12,AACAATCTACGTCTCGTCTCGTCACGGCCCAATCCACGATCGGAGTCACCTAGTGCAG,4370 fluorescence intensity (a.u.)
13,GCAGCATATGACATTCTGTCTGATGAAGAGAAGAGGAAAACGGAGTCACCTAGTGCAG,22600 fluorescence intensity (a.u.)
14,GGTGCGGGAATGGGAAGAAGTCGGCGGACTAGAGGGGCGGCGGAGTCACCTAGTGCAG,3140 fluorescence intensity (a.u.)
15,TATCATCGCCACCACTAGCTTGTCGTCGTGGCATTGGATTCGGAGTCACCTAGTGCAG,4970 fluorescence intensity (a.u.)
16,TTTTACGTAAAATGAGATGGTATTACGTATGATTAATTGACGGAGTCACCTAGTGCAG,3520 fluorescence intensity (a.u.)
17,CTTGGCTGTTCCAGCAAGTCATCAATAATCATATCGTCGTCGGAGTCACCTAGTGCAG,3520 fluorescence intensity (a.u.)
18,AAAGTGAACAGGCCCCTAGCGTAGATGTCGGGTGGGATGGCGGAGTCACCTAGTGCAG,3310 fluorescence intensity (a.u.)
19,ATAGAAACATAGCGTGACACAACATAACAAACCAATGCAACGGAGTCACCTAGTGCAG,4630 fluorescence intensity (a.u.)
20,TCGTAGGGTGCGGGGTGGCTGCCTGTCTCCTTCGCCTCGCCGGAGTCACCTAGTGCAG,3310 fluorescence intensity (a.u.)
21,GGCGCGCTGGCATCCGCCACGGGCCTCGACCGCCTCGTCGCGGAGTCACCTAGTGCAG,4530 fluorescence intensity (a.u.)

# Reprinted at random: two records from the list
row,Sequence,binding signal
21,GGCGCGCTGGCATCCGCCACGGGCCTCGACCGCCTCGTCGCGGAGTCACCTAGTGCAG,4530 fluorescence intensity (a.u.)
3,GCATCTAGAATAAATTATTATGTTTTACTAAATACAAATACGGAGTCACCTAGTGCAG,30600 fluorescence intensity (a.u.)

# Additional records:

row,Sequence,binding signal
1,AGGACAACACCTACGTCTACATGTGCGGCCTCAAGGGCATCGGAGTCACCTAGTGCAG,3470 fluorescence intensity (a.u.)
2,GGCAGTTTTGCCAGTTGTTGATTGGACCACGTGGCTTGACCGGAGTCACCTAGTGCAG,7670 fluorescence intensity (a.u.)
3,CGAGTCCATAAGGGAGTACGTCGCCGAGGCGGCGCGCCGGCGGAGTCACCTAGTGCAG,23000 fluorescence intensity (a.u.)
4,GCAACTTCCATTGACTGGGAATCAGGTTGCATAGTAGCAGCGGAGTCACCTAGTGCAG,3360 fluorescence intensity (a.u.)
5,GCAGAAGCTGGCAAATAATCAATCGTCAGCAACAGGTAGACGGAGTCACCTAGTGCAG,4330 fluorescence intensity (a.u.)
6,GCCCTGTTCCCTGCAGAGAATCATTATATACTCCCTCCAACGGAGTCACCTAGTGCAG,48100 fluorescence intensity (a.u.)
7,CTTGACTTGTAACCCCTAAGCATCTTTTCTCATCAGGGTCCGGAGTCACCTAGTGCAG,5290 fluorescence intensity (a.u.)
8,GTCTAGCGATCTAGTTGCTGATTTACTGGCCTCTTTACTCCGGAGTCACCTAGTGCAG,3660 fluorescence intensity (a.u.)
9,AAAACATTTTCTCGACCTTGTTGCTGAGCTCCACCCGTAGCGGAGTCACCTAGTGCAG,3840 fluorescence intensity (a.u.)
10,TTCTGTGCTGTTCTTGACTGACCTCTCATCATTCAGAGCACGGAGTCACCTAGTGCAG,3420 fluorescence intensity (a.u.)
11,TTCACAACACTTGCATGAACTCAGGTGTCAATGGTAAGGTCGGAGTCACCTAGTGCAG,3560 fluorescence intensity (a.u.)
12,CGAAACAGCTGGAACATTTTGCGCTCCCTCCAGCCCACCCCGGAGTCACCTAGTGCAG,4400 fluorescence intensity (a.u.)
13,TTCTTCTTCATCCAGCTGCATGCCACGGACTGCAATCTATCGGAGTCACCTAGTGCAG,4090 fluorescence intensity (a.u.)
14,TGCAGCGCCCTCAGCGTTTTGCGCTGCCGTGGCCATCACGCGGAGTCACCTAGTGCAG,4300 fluorescence intensity (a.u.)
15,TGTGACGAACGCATGCATGCACGCGCGCGTACGTGGTGGGCGGAGTCACCTAGTGCAG,5150 fluorescence intensity (a.u.)
16,GACATCAAAGTAAACAGGCCCGAAGTTTAGCTATCCAAATCGGAGTCACCTAGTGCAG,21600 fluorescence intensity (a.u.)
17,AGGGACTAAACTTTAGTCTCTGTGACATCAGATGTTTGGACGGAGTCACCTAGTGCAG,3690 fluorescence intensity (a.u.)
18,GAGATAGTATTAGTTGTTGTTGTAGTCACAATGGTGAATGCGGAGTCACCTAGTGCAG,3280 fluorescence intensity (a.u.)
19,CCGGGGTCTCCACCGTCGGCTTCTCCGCCAGCCACCGAATCGGAGTCACCTAGTGCAG,4580 fluorescence intensity (a.u.)
20,CTTACCAAAATTTTGTAAGGTTTATTTTGGCTACAATCTGCGGAGTCACCTAGTGCAG,3610 fluorescence intensity (a.u.)
21,TTTAATACATGGGCCGCCCTTTGCCGTGGCGCGTCACCCACGGAGTCACCTAGTGCAG,5840 fluorescence intensity (a.u.)
